Source: PubChem BioAssay AID743121 (NCATS, 2013)

- Aim: 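Knock-downs that sensitise breast cancer cells to camptothecin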 (primary screen)
- System: MDA-MB-231 cells, a human breast cancer line
- Knock-down reagent: single siRNA against human genes, 20 nM siRNA (0.8 pmol per well)
- Time to read-out: 120 h (drug added 48 h after transfection, read 72 h later)
- Conditions: camptothecin 20 nM (about EC30) for 72 h; vehicle 0.1% DMSO in parallel plates
- Read-out: 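Cell viability by ATP luminescence (CellTiter-Glo) as % of non-targeting siRNA wells, and the log2 ratio of viability without drug over viability with camptothecin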
- Direction: log2 vehicle/camptothecin viability: higher = stronger sensitisation to camptothecin; viability with camptothecin and viability without drug: higher = more viable cells
- Active means: 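Each gene scored by redundant siRNA activity (RSA) over its individual siRNA ratios; a gene is called active at p < 0.001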
This is an unselected part of about 26,000 reagents. In the full data, 167 (0.63%) are marked active. 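Calls are per gene from RSA p-values that are not deposited; an individual active-marked siRNA can sensitise only weakly.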 Reagents against one gene are numbered here.

Gene	reagent	log2 vehicle/camptothecin viability	viability with camptothecin (% of control)	viability without drug (% of control)	Call
MRGPRD	1	-0.495	85.9	61	inactive
MRGPRD	2	-0.613	40.9	26.7	inactive
MRGPRD	3	-0.198	103	89.8	inactive
MRGPRD	4	-0.303	71.3	57.8	inactive
CAV2	1	-0.167	74.4	66.3	inactive
CAV2	2	0.805	43.2	75.4	inactive
CAV2	3	-0.387	102	78	inactive
CAV2	4	-0.069	56.9	54.2	inactive
CAV2	5	-0.122	97.2	89.3	inactive
CAV2	6	0.174	81.9	92.4	inactive
CAV2	7	-0.0015	108	108	inactive
CAV2	8	0.237	78.8	92.9	inactive
ASPRV1	1	-0.166	32.1	28.6	inactive
ASPRV1	2	-0.579	18.8	12.6	inactive
ASPRV1	3	0.00169	76	76.1	inactive
ASPRV1	4	-0.138	99.4	90.3	inactive
CXXC1	1	-0.111	59.6	55.2	inactive
CXXC1	2	-0.177	114	100	inactive
CXXC1	3	0.662	10.9	17.2	inactive
CPB1	1	-0.154	99.5	89.4	inactive
CPB1	2	-0.263	76.9	64.1	inactive
CPB1	3	-0.535	58.4	40.3	inactive
PRSS37	1	0.196	68.6	78.6	inactive
PRSS37	2	-0.0893	94	88.4	inactive
PRSS37	3	0.301	70.1	86.4	inactive
PRSS37	4	0.155	58.7	65.3	inactive
PLA2G2C	1	-0.472	21.1	15.2	inactive
PLA2G2C	2	-0.0411	77.7	75.5	inactive
PLA2G2C	3	0.132	46.5	50.9	inactive
MED1	1	-0.365	63.5	49.4	inactive
MED1	2	-0.242	85.5	72.3	inactive
MED1	3	-0.117	57.7	53.2	inactive
MED1	4	-0.439	108	79.9	inactive
OTX1	1	-0.17	76.3	67.8	inactive
OTX1	2	-0.567	67.1	45.3	inactive
OTX1	3	0.188	73	83.2	inactive
OTX1	4	-0.341	78.2	61.8	inactive
CD59	1	-0.214	69.2	59.7	inactive
CD59	2	-0.0414	105	102	inactive
CD59	3	-0.146	61.4	55.5	inactive
CD59	4	-0.197	57.3	49.9	inactive
CD74	1	0.122	30.8	33.5	inactive
CD74	2	-0.175	72.6	64.3	inactive
CD74	3	-0.254	91.6	76.8	inactive
CD74	4	-0.368	15.5	12	inactive
ACAD10	1	0.0805	95.6	101	inactive
ACAD10	2	-0.4	51	38.6	inactive
ACAD10	3	-0.0891	94.8	89.1	inactive
ACAD10	4	-0.122	78.5	72.1	inactive
MID2	1	-0.324	52.7	42.1	inactive
MID2	2	-0.888	61.2	33	inactive
MID2	3	-0.246	79.1	66.7	inactive
MID2	4	0.0764	57.6	60.8	inactive
ARHGEF11	1	-0.126	82.1	75.2	inactive
ARHGEF11	2	0.0958	98.4	105	inactive
ARHGEF11	3	0.158	32.2	35.9	inactive
CYP46A1	1	-0.147	96.2	86.8	inactive
CYP46A1	2	-0.494	95.1	67.5	inactive
CYP46A1	3	-0.265	98.4	81.9	inactive
RAB39B	1	-0.228	107	91.6	inactive
RAB39B	2	0.281	60.8	73.9	inactive
RAB39B	3	-0.615	86.7	56.6	inactive
RAB39B	4	-0.588	31.4	20.9	inactive
ZRANB3	1	-0.218	96.8	83.3	inactive
ZRANB3	2	0.112	34.3	37.1	inactive
ZRANB3	3	-0.288	45.2	37	inactive
ZRANB3	4	-0.142	95.3	86.4	inactive
CNGA3	1	0.331	17.9	22.5	inactive
CNGA3	2	-0.276	52.4	43.3	inactive
CNGA3	3	-0.446	76.8	56.4	inactive

12 consecutive records from above, quoted:
Gene	reagent	log2 vehicle/camptothecin viability	viability with camptothecin (% of control)	viability without drug (% of control)	Call
PRSS37	1	0.196	68.6	78.6	inactive
PRSS37	2	-0.0893	94	88.4	inactive
PRSS37	3	0.301	70.1	86.4	inactive
PRSS37	4	0.155	58.7	65.3	inactive
PLA2G2C	1	-0.472	21.1	15.2	inactive
PLA2G2C	2	-0.0411	77.7	75.5	inactive
PLA2G2C	3	0.132	46.5	50.9	inactive
MED1	1	-0.365	63.5	49.4	inactive
MED1	2	-0.242	85.5	72.3	inactive
MED1	3	-0.117	57.7	53.2	inactive
MED1	4	-0.439	108	79.9	inactive
OTX1	1	-0.17	76.3	67.8	inactive
